Experimental data: PubChem BioAssay AID1259308 (NCATS, 2017)
This is a random part of about 59,000 reagents tested. About 1,510 of them (2.6%) were called active. 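Calls use total luciferase alone and ignore viability, so some active siRNAs may act by altering cell number.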 Reagents against one gene are numbered here. Further read-outs or replicates are left out here. Reagent sequences are not shown.

- Assay: 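Knock-downs that increase output of a recombinant reporter protein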 (primary screen)
- Cells: human HEK293 embryonic kidney cells stably expressing firefly luciferase (HEK-CMV-Luc2-Hygro)
- Reagent: single siRNA against human genes, 0.8 pmol siRNA per well
- Time to read-out: 72 h
- Read-out: 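Luciferase light (ONE-Glo) measured on one replicate plate set and viability (CellTiter-Glo) on the other, scaled to a negative control siRNA, with robust z-scores and luciferase per cell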
- Scale: total luciferase, z-score: higher = more reporter protein produced
- Hit rule: 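An siRNA counts as active if its total luciferase robust z-score exceeds 3; genes with two or more such siRNAs out of three were retested with fresh siRNAs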
- Calls: active = raised luciferase; inactive = no rise

Knock-down of PGM5 (GeneID 5239) #1 came out at: total luciferase, z-score -0.214; inactive.
After knock-down of PGM5 (GeneID 5239) #2 the results were total luciferase, z-score 3.14; active.
With knock-down of PGM5 (GeneID 5239) #3, the screen gave total luciferase, z-score 1.52; inactive.
For SSUH2 (GeneID 51066) #1 the deposit lists total luciferase, z-score 1.2; inactive.
After knock-down of SSUH2 (GeneID 51066) #2 the results were total luciferase, z-score -2.39; inactive.
After knock-down of SSUH2 (GeneID 51066) #3, the record shows total luciferase, z-score -0.922; inactive.
Against RASL10B (GeneID 91608) #1 the deposit lists total luciferase, z-score 0.952; inactive.
With knock-down of RASL10B (GeneID 91608) #2, the record shows total luciferase, z-score -0.463; inactive.
For RASL10B (GeneID 91608) #3 the deposit lists total luciferase, z-score -0.431; inactive.
Knock-down of SYNE3 (GeneID 161176) #1 resulted in: total luciferase, z-score -0.331; inactive.
After knock-down of SYNE3 (GeneID 161176) #2, the record shows total luciferase, z-score 2.9; inactive.
Against SYNE3 (GeneID 161176) #3 the deposit lists total luciferase, z-score 1.94; inactive.
TOR2A (GeneID 27433) #1 gave total luciferase, z-score -1.66; inactive.
Depletion of TOR2A (GeneID 27433) #2 came out at: total luciferase, z-score -0.727; inactive.
After knock-down of TOR2A (GeneID 27433) #3, the screen gave total luciferase, z-score 0.437; inactive.
Knock-down of C12orf42 (GeneID 374470) #1 came out at: total luciferase, z-score 0.184; inactive.
For C12orf42 (GeneID 374470) #2, the entry reads total luciferase, z-score -0.205; inactive.
C12orf42 (GeneID 374470) #3 scored total luciferase, z-score -0.694; inactive.
Against CD1C (GeneID 911) #1 the deposit lists total luciferase, z-score -0.307; inactive.
CD1C (GeneID 911) #2 gave total luciferase, z-score -1.03; inactive.
After knock-down of CD1C (GeneID 911) #3, the screen gave total luciferase, z-score -0.725; inactive.
